# PubChem BioAssay AID540256 (National Center for Advancing Translational Sciences (NCATS), 2011)
# About 3,700 (1.2%) of roughly 300,000 compounds were called active. Inconclusive results, whose numbers are uncertain, are shown with a selection of clear calls. Calls follow the shape of the full dose curve; tested in HEK293 cells. Where the call is inconclusive, the potency comes from a doubtful curve fit.
# Assay: qHTS for Inhibitors of binding or entry into cells for Lassa Virus; also: nearly all actives have a fitted effect of over 50% in size
# Details: Lassa virus pseudotype entry inhibition, cell reporter; activity change, negative = inhibition: at 37.9 µM (top of the series) unless noted
# % is scaled to controls: 0 for no effect and ±100 for the full control effect; potency is read from the fitted curve at half-maximal effect.
Structure (SMILES),Potency,"activity change, negative = inhibition"
CCCN(CCC)S(=O)(=O)c1ccc(C(=O)Nc2nnc(-c3cccc(OC)c3)o2)cc1,"inconclusive: 7.08 µM [inhibitor, partial curve, poor fit]",–
O=C(CN1C(=O)c2cccc3cccc1c23)Nc1ccccc1C(=O)NCc1ccco1,"inconclusive: 25.9 µM [inhibitor, partial curve, poor fit]",–
CC(C)CC(=O)Nc1c(C(=O)N2CCN(c3ccccc3F)CC2)oc2ccccc12,"inconclusive: 15.8 µM [inhibitor, single point]",–
CC(=O)c1ccc(N2CCN(C(=O)Nc3cccc(F)c3)CC2)cc1,"inconclusive: 6.31 µM [activator, partial curve]",–
COc1ccccc1/C=N/OCC(=O)NCc1ccc2c(c1)OCO2,–,inactive: 14.7%
COc1ccc(CC(=O)Nc2cccc(-c3nnc(-c4ccccc4)o3)c2)cc1OC,active: 7.3 µM,–
O=C(Nc1ccc(O)cc1)c1cc2n(n1)C(C(F)(F)F)CC(c1ccco1)N2 (configuration not stated),"inconclusive: 22.4 µM [inhibitor, partial curve, poor fit]",–
CCCCOC(=O)Nc1ccc(C(=O)OC)cc1,–,inactive: -16.9%
Cc1cc(=O)[nH]c(SCC(=O)NCc2ccc3c(c2)OCO3)n1,"inconclusive: 2.82 µM [inhibitor, single point]",–
O=C(NN=Cc1ccccc1Cl)c1cccc2ccccc12,–,inactive: 13.2% [at 46.1 µM]
CCc1ccc(NC(=S)Nc2ccc3cn[nH]c3c2)cc1,"inconclusive: 29.1 µM [activator, single point]",–
O=C(CCS(=O)(=O)c1ccccc1)N1CCN(c2cccc(C(F)(F)F)c2)CC1,"inconclusive: 20 µM [inhibitor, single point]",–
Cc1ccc2nc(NC(=O)c3cccs3)sc2c1,active: 2.51 µM,–
Cc1cccc(N2CCN(c3ccc(C(=O)O)cc3NC(=O)c3ccccc3F)CC2C)c1 (configuration not stated),–,inactive: 13.8% [at 46.1 µM]
COc1cccc(NC(=O)C(=O)NCC2CCCN2S(=O)(=O)c2ccccc2)c1 (configuration not stated),"inconclusive: 35.5 µM [inhibitor, single point]",–
CC(C)NC(=O)CN1C(=O)c2ccccc2S1(=O)=O,–,inactive: 12.5%
O=C(NN=Cc1ccccc1O)NN=Cc1ccccc1O,"inconclusive: 3.55 µM [inhibitor, full curve, poor fit]",–
CC(=O)c1cn(CC(=O)Nc2ccccc2)c2ccccc12,"inconclusive: 11.6 µM [inhibitor, partial curve, poor fit]",–
CCOc1ccc(NC(=O)N2CCCC2C(=O)NCC2CCCO2)cc1 (configuration not stated),–,inactive: 0.949% [at 46.1 µM]
O=C(O)c1cccc(Nc2nc(-c3cccnc3)nc3ccccc23)c1,–,inactive: 7.06%
CCN(Cc1cccs1)C(=O)c1cccc(S(=O)(=O)N2CCN(C)CC2)c1,"inconclusive: 0.0891 µM [activator, full curve, poor fit]",–
CC(/C=N/NC(=O)c1cc(-c2cccn2C)n[nH]1)=C\c1ccccc1,"inconclusive: 35.5 µM [inhibitor, single point]",–
COC(=O)C1=C(c2ccccc2)c2ccccc2S(=O)(=O)N1CC(=O)Nc1ccccc1C(F)(F)F,"inconclusive: 35.5 µM [inhibitor, single point]",–

# Whole records, looked up by structure. Values in the order: Potency | activity change, negative = inhibition
# `CCCCOC(=O)Nc1ccc(C(=O)OC)cc1` is entered as – | inactive: -16.9%
# `Cc1cc(=O)[nH]c(SCC(=O)NCc2ccc3c(c2)OCO3)n1` is entered as inconclusive: 2.82 µM [inhibitor, single point] | –

# The list goes on.

Structure (SMILES),Potency,"activity change, negative = inhibition"
COc1ccc(CSc2nc3ccccc3[nH]2)cc1,"inconclusive: 0.82 µM [activator, full curve, poor fit]",–
COC1=C(Nc2ccc(C)cc2)C(=O)c2ccccc2C1=O,"inconclusive: 31.6 µM [inhibitor, single point]",–
O=C(C[n+]1cc(-c2ccc(F)cc2)n2c1CCC2)Nc1nc(-c2ccc(F)cc2)cs1,–,inactive: 15.7%
CCCCC(=O)Nc1ccc(C(=O)OCc2cc(=O)n3nc(C4CC4)sc3n2)cc1,–,inactive: 6.71% [at 46.1 µM]
COc1cc2c(cc1OC)CN(C(=S)Nc1ccccc1Cl)CC2,"inconclusive: 3.55 µM [inhibitor, partial curve, poor fit]",–
Cc1oc(-c2ccc(C(=O)NCc3ccccc3)cc2)nc1CS(=O)(=O)c1ccccc1,–,inactive: -1.64% [at 46.1 µM]
CCOC(=O)C1=NN(c2cccc(C)c2)C2(S1)SC(C(C)=O)=C(C)N2c1ccccc1 (configuration not stated),–,inactive: -1.85%
CN(C)c1ccc(/C=N/OC(=O)Nc2ccccc2)cc1,"inconclusive: 31.6 µM [inhibitor, single point]",–
Cc1ccc(N(CCC#N)C(=O)COC(=O)c2ccccc2SCC(=O)N2CCCC2)cc1,–,inactive: -4.54%
O=C(Cc1ccccc1)Nc1cccc(-c2nc3cccnc3s2)c1,–,inactive: 20.3% [at 46.1 µM]
CCc1[nH]nc(C(=O)N2CCCC(CCC(=O)N3CCN(c4ccccn4)CC3)C2)c1C (configuration not stated),"inconclusive: 17.8 µM [inhibitor, single point]",–
Cc1cc(C(=O)N/N=C/C=C/c2ccccc2[N+](=O)[O-])c(C)o1,"inconclusive: 35.5 µM [inhibitor, single point]",–
O=C(CCC1CCCCC1)Nc1ccccc1O,"inconclusive: 6.51 µM [activator, single point]",–
O=C(Nc1ccc(F)cc1F)c1ccc2c(c1)OCCO2,"inconclusive: 6.31 µM [inhibitor, full curve, poor fit]",–
O=C(Nc1cccc2ccccc12)C1CCN(C(=O)NCc2ccccc2)CC1,"inconclusive: 3.26 µM [activator, partial curve, poor fit]",–
CCc1ccc(OCC(=O)Nc2ccc(S(=O)(=O)N3CCCC3)cc2)c(Br)c1,–,inactive: -17.8%
Cc1ccc(SCc2nc(-c3ccccn3)no2)cc1,–,inactive: -3.82%
CCCNC(=O)c1ccc(S(=O)(=O)c2ccc(OC)cc2)c([N+](=O)[O-])c1,"inconclusive: 35.5 µM [inhibitor, partial curve, poor fit]",–
CCOc1ccc(N(CC)C(=O)CSc2n[nH]c(-c3ccccc3)n2)cc1,"inconclusive: 5.01 µM [inhibitor, partial curve, poor fit]",–
Nc1c(C(=O)NCCC2=CCCCC2)sc2ccc(S(=O)(=O)N3CCCCC3)cc12,"inconclusive: 25.9 µM [inhibitor, partial curve]",–
CCCCn1c(-c2ccc(C)cc2)c(C)n2c3c(=O)n(C)c(=O)n(C)c3nc12,"inconclusive: 0.562 µM [inhibitor, full curve, poor fit]",–
COc1ccc(C2(c3ccc(OC)cc3)NC(=O)N(Cn3nnc4ccccc4c3=O)C2=O)cc1,"inconclusive: 10.3 µM [inhibitor, partial curve]",–
O=C(NC(NC1CCS(=O)(=O)C1)C(=O)c1cccs1)c1ccccc1 (configuration not stated),–,inactive: 1.43%

# Two successive compounds from above, quoted:
Structure (SMILES),Potency,"activity change, negative = inhibition"
O=C(C[n+]1cc(-c2ccc(F)cc2)n2c1CCC2)Nc1nc(-c2ccc(F)cc2)cs1,–,inactive: 15.7%
CCCCC(=O)Nc1ccc(C(=O)OCc2cc(=O)n3nc(C4CC4)sc3n2)cc1,–,inactive: 6.71% [at 46.1 µM]

# Continuation:

Structure (SMILES),Potency,"activity change, negative = inhibition"
Cc1nc2ccccc2n1C1CCN(CC(=O)Nc2ccccc2Br)CC1,"inconclusive: 8.91 µM [inhibitor, partial curve, poor fit]",–
S=C(Nc1ccc(Br)cc1)N1CCN(C2CCCCC2)CC1,"inconclusive: 7.3 µM [inhibitor, partial curve, poor fit]",–
CCCCNCC(=O)Nc1ccc(NC(=O)CNCCCC)cc1,–,inactive: -17.1%
OCC1OC(n2ccc3c(SCc4ccccc4)ncnc32)C(O)C1O (configuration not stated),"inconclusive: 3.16 µM [activator, full curve, poor fit]",–
O=S(=O)(NC1CCCC1)c1ccc(S(=O)(=O)N2CCc3ccccc32)cc1,"inconclusive: 4.11 µM [inhibitor, partial curve, poor fit]",–
Cc1cccc(NC(=S)N2CCC(NC(=O)C3CCCCC3)CC2)c1,"inconclusive: 6.31 µM [inhibitor, single point]",–
O=C(CNc1ccc(Cl)c(C(F)(F)F)c1)N1CCN(S(=O)(=O)c2ccccc2)CC1,"inconclusive: 25.1 µM [inhibitor, single point]",–
CN1C(=O)NC(c2ccccc2)C2=C1CN(c1cccc(C(F)(F)F)c1)C2=O (configuration not stated),–,inactive: -25.8%
CC1CCCC(NC(=O)CCCn2c(=S)[nH]c3ccccc3c2=O)C1C (configuration not stated),"inconclusive: 3.55 µM [activator, full curve, poor fit]",–
Cc1ccc(CN(Cc2ccco2)S(=O)(=O)c2ccc(S(=O)(=O)NCC3CCCO3)cc2)cc1 (configuration not stated),"inconclusive: 8.91 µM [inhibitor, partial curve, poor fit]",–
Cc1c(NC(=O)c2ccc(N3CCC(C)CC3)c([N+](=O)[O-])c2)cccc1-c1nc2ccccc2o1,–,inactive: 2.75% [at 46.1 µM]
Cc1ccc(CNC(=O)c2cc(=O)c3ccccc3o2)cc1,"inconclusive: 15.8 µM [inhibitor, single point]",–
Cc1ccc(CN(C(=O)c2csnn2)C(C(=O)NC2CCCC2)c2cccnc2)cc1 (configuration not stated),"inconclusive: 35.5 µM [inhibitor, single point]",–
COc1ccc(Cn2c(N)c(C(=O)NCc3ccco3)c3nc4ccccc4nc32)cc1,"inconclusive: 35.5 µM [inhibitor, single point]",–
O=C1CN(S(=O)(=O)c2ccc([N+](=O)[O-])cc2)CC(=O)N1,–,inactive: 2.23% [at 46.1 µM]
Cc1ccc(-n2c(O)c(/C=N/Nc3ccc(S(=O)(=O)N4CCOCC4)cc3[N+](=O)[O-])c3ccccc3c2=O)c(C)c1,"inconclusive: 15.8 µM [inhibitor, single point]",–
O=C(c1ccco1)N1CCN(C(=O)N2c3ccccc3Sc3ccccc32)CC1,"inconclusive: 1.83 µM [inhibitor, partial curve]",–
COc1ccc(C(=O)C2CCN(C(=S)NCCc3ccc(OC)c(OC)c3)CC2)cc1,"inconclusive: 22.4 µM [inhibitor, single point]",–
CC1Cc2ccccc2N1Cc1cccc([N+](=O)[O-])c1 (configuration not stated),–,inactive: -2.3%
Cc1cccc(C(=O)O/N=C(\N)c2cccc([N+](=O)[O-])c2)c1,–,inactive: 8.38%
CCOC(=O)N/C(N)=N/c1nc2ccccc2s1,"inconclusive: 0.517 µM [activator, partial curve, poor fit]",–
